Measured values from patent US20080281105A1, “Novel Quinolinium Salts and Derivatives” (IMMUSOL INCORPORATED, priority 2005, published 2008).
Counter-ions that a name gives are not always drawn.

Columns and labels:
[1] = system: HCT116 colon cancer cells; details: nude mice, HCT116 xenograft, dosed orally or i.p.; minimal change in body weight
Excerpt: Female athymic nude (nu/nu) mice were inoculated with HCT116 colon cancer cells, and the tumors were allowed to grow to a volume of about 150 mm^3.

[2] = system: various cancer cell lines; details: reported by Esumi; cited from earlier work

## Cc1cc(/C=C/c2ccc3cc(N(C)C)ccc3[n+]2C)c(C)n1-c1ccccc1 [Example 1, Pyrvinium Phosphate]
[1]
  toxicity (change in body weight): no apparent toxicity
physchem; water, thermodynamic from solid
  solubility: ≥ 1000 µg/mL

## Cc1cc(/C=C/c2ccc3cc(N(C)C)ccc3[n+]2C)c(C)n1-c1ccccc1 [Example 2, Pyrvinium Sulfate]
physchem; saline or isotonic
  solubility: 1000 µg/mL

## Cc1cc(/C=C/c2ccc3cc(N(C)C)ccc3[n+]2C)c(C)n1-c1ccccc1 [pyrvinium pamoate]
[2]
  toxicity for cancer cell lines during glucose starvation: preferential toxicity
